Laboratory results taken from ChEMBL document CHEMBL4316593 (Eur J Med Chem, 2019).
This continues a long series; more values of the same kind are listed elsewhere.

Legend:
Format in all cases: cell-based
Settings in all cases: U-87MG ATCC
[1] = Inhibition of RTK/PI3K/AKT/mTOR signaling in human U87 cells assessed as up regulation of VPS51, GARP complex subunit gene expression at cytotoxic IC50 measured after 48 hrs relative to control
[2] = Inhibition of RTK/PI3K/AKT/mTOR signaling in human U87 cells assessed as down regulation of STX12 gene expression at cytotoxic IC50 measured after 48 hrs relative to control
[3] = Inhibition of RTK/PI3K/AKT/mTOR signaling in human U87 cells assessed as down regulation of ZFYVE16 gene expression at cytotoxic IC50 measured after 48 hrs relative to control
[4] = Inhibition of RTK/PI3K/AKT/mTOR signaling in human U87 cells assessed as down regulation of ZNF16 gene expression at cytotoxic IC50 measured after 48 hrs relative to control
[5] = Inhibition of RTK/PI3K/AKT/mTOR signaling in human U87 cells assessed as down regulation of BCAS2 gene expression at cytotoxic IC50 measured after 48 hrs relative to control
[6] = Inhibition of RTK/PI3K/AKT/mTOR signaling in human U87 cells assessed as up regulation of ORAI calcium release-activated calcium modulator 2 gene expression at cytotoxic IC50 measured after 48 hrs relative to control
[7] = Inhibition of RTK/PI3K/AKT/mTOR signaling in human U87 cells assessed as down regulation of ARNT2 gene expression at cytotoxic IC50 measured after 48 hrs relative to control
[8] = Inhibition of RTK/PI3K/AKT/mTOR signaling in human U87 cells assessed as down regulation of HIPK2 gene expression at cytotoxic IC50 measured after 48 hrs relative to control
[9] = Inhibition of RTK/PI3K/AKT/mTOR signaling in human U87 cells assessed as up regulation of OTU deubiquitinase, ubiquitin aldehyde binding 2 gene expression at cytotoxic IC50 measured after 48 hrs relative to control
[10] = Inhibition of RTK/PI3K/AKT/mTOR signaling in human U87 cells assessed as up regulation of mitogen-activated protein kinase 15 gene expression at cytotoxic IC50 measured after 48 hrs relative to control
[11] = Inhibition of RTK/PI3K/AKT/mTOR signaling in human U87 cells assessed as up regulation of NADH dehydrogenase, subunit 3 (complex I) gene expression at cytotoxic IC50 measured after 48 hrs relative to control
[12] = Inhibition of RTK/PI3K/AKT/mTOR signaling in human U87 cells assessed as up regulation of carbohydrate sulfotransferase 12 gene expression at cytotoxic IC50 measured after 48 hrs relative to control
[13] = Inhibition of RTK/PI3K/AKT/mTOR signaling in human U87 cells assessed as down regulation of VPS26B gene expression at cytotoxic IC50 measured after 48 hrs relative to control
[14] = Inhibition of RTK/PI3K/AKT/mTOR signaling in human U87 cells assessed as down regulation of ETV5 gene expression at cytotoxic IC50 measured after 48 hrs relative to control
[15] = Inhibition of RTK/PI3K/AKT/mTOR signaling in human U87 cells assessed as up regulation of DDOST gene expression at cytotoxic IC50 measured after 48 hrs relative to control
[16] = Inhibition of RTK/PI3K/AKT/mTOR signaling in human U87 cells assessed as up regulation of FLRT1 gene expression at cytotoxic IC50 measured after 48 hrs relative to control
[17] = Inhibition of RTK/PI3K/AKT/mTOR signaling in human U87 cells assessed as down regulation of GCA gene expression at cytotoxic IC50 measured after 48 hrs relative to control
[18] = Inhibition of RTK/PI3K/AKT/mTOR signaling in human U87 cells assessed as down regulation of TRIM62 gene expression at cytotoxic IC50 measured after 48 hrs relative to control
[19] = Inhibition of RTK/PI3K/AKT/mTOR signaling in human U87 cells assessed as up regulation of PDGFB gene expression at cytotoxic IC50 measured after 48 hrs relative to control
[20] = Inhibition of RTK/PI3K/AKT/mTOR signaling in human U87 cells assessed as down regulation of TIGAR gene expression at cytotoxic IC50 measured after 48 hrs relative to control
[21] = Inhibition of RTK/PI3K/AKT/mTOR signaling in human U87 cells assessed as down regulation of CMTM6 gene expression at cytotoxic IC50 measured after 48 hrs relative to control
[22] = Inhibition of RTK/PI3K/AKT/mTOR signaling in human U87 cells assessed as down regulation of RAD1 gene expression at cytotoxic IC50 measured after 48 hrs relative to control
[23] = Inhibition of RTK/PI3K/AKT/mTOR signaling in human U87 cells assessed as up regulation of glycogen synthase 1 gene expression at cytotoxic IC50 measured after 48 hrs relative to control
[24] = Inhibition of RTK/PI3K/AKT/mTOR signaling in human U87 cells assessed as up regulation of cardiolipin synthase 1 gene expression at cytotoxic IC50 measured after 48 hrs relative to control
[25] = Inhibition of RTK/PI3K/AKT/mTOR signaling in human U87 cells assessed as up regulation of CDC25B gene expression at cytotoxic IC50 measured after 48 hrs relative to control
[26] = Inhibition of RTK/PI3K/AKT/mTOR signaling in human U87 cells assessed as up regulation of RAB25, member RAS oncogene family gene expression at cytotoxic IC50 measured after 48 hrs relative to control
[27] = Inhibition of RTK/PI3K/AKT/mTOR signaling in human U87 cells assessed as up regulation of PAQR5 gene expression at cytotoxic IC50 measured after 48 hrs relative to control
[28] = Inhibition of RTK/PI3K/AKT/mTOR signaling in human U87 cells assessed as up regulation of PRDX5 gene expression at cytotoxic IC50 measured after 48 hrs relative to control
[29] = Inhibition of RTK/PI3K/AKT/mTOR signaling in human U87 cells assessed as down regulation of SAE1 gene expression at cytotoxic IC50 measured after 48 hrs relative to control
[30] = Inhibition of RTK/PI3K/AKT/mTOR signaling in human U87 cells assessed as down regulation of ANKRD1 gene expression at cytotoxic IC50 measured after 48 hrs relative to control
[31] = Inhibition of RTK/PI3K/AKT/mTOR signaling in human U87 cells assessed as down regulation of KIAA1468 gene expression at cytotoxic IC50 measured after 48 hrs relative to control
[32] = Inhibition of RTK/PI3K/AKT/mTOR signaling in human U87 cells assessed as down regulation of CACUL1 gene expression at cytotoxic IC50 measured after 48 hrs relative to control

SMILES: CC(=O)C(=NNc1ccccc1C#N)C(C)=O
- log2FC [1]: 0.849
- log2FC [2]: -0.726
- log2FC [3]: -0.898
- log2FC [4]: -0.904
- log2FC [5]: -0.829
- log2FC [6]: 1.35
- log2FC [7]: -1.35
- log2FC [8]: -0.71
- log2FC [9]: 1.54
- log2FC [10]: 1.52
- log2FC [11]: 0.782
- log2FC [12]: 0.921
- log2FC [13]: -0.551
- log2FC [14]: -0.707
- log2FC [15]: 0.441
- log2FC [16]: 3.04
- log2FC [17]: -1.2
- log2FC [18]: -1.1
- log2FC [19]: 2.19
- log2FC [20]: -1.08
- log2FC [21]: -0.585
- log2FC [22]: -0.985
- log2FC [23]: 1.04
- log2FC [24]: 0.901
- log2FC [25]: 0.602
- log2FC [26]: 0.723
- log2FC [27]: 2.42
- log2FC [28]: 0.635
- log2FC [29]: -0.517
- log2FC [30]: -4.58
- log2FC [31]: -1.13
- log2FC [32]: -0.564
